For at least one compound, name, drawing or mass did not settle the structure.
Test: Granulometric measurements by SLS (Mastersizer)
Type: physicochemical
Conditions: after milling in phenylethyl benzoate without dispersant
Procedure: Two micronizations of these compounds 1 and 2 are performed by milling in oily medium (oil: phenylethyl benzoate—X-Tend 226 from ISP) by means of a mill without addition of dispersant, using a Dispermat ball mill.
• Dispermat AE 06-C1 disperser-mill (Brant Industrie) • Dispersion: slurries containing 17% R056336A and 49% F17845 (difference in oil uptake) ˜3000 rpm ˜15 minutes • Milling under rapid conditions (30 minutes at 4500 rpm), not optimized (water-cooling circuit not operational) with 0.7-1.2 mm […] balls.
The granulometric results obtained by SLS using a Mastersizer granulometer reveal a very marked difference in particle size between compound 1 and compound 2, with particle sizes d(0.5), respectively, of 0.118 μm as opposed to 851 μm.

In the case of `CC(C)(C)CC(C)(C)c1cc(Cc2cc(C(C)(C)CC(C)(C)C)cc(-n3nc4ccccc4n3)c2O)c(O)c(-n2nc3ccccc3n2)c1` [Compound 2, methylenebis(benzo-triazolyl)tetramethylbutylphenol, reference compound], the “particle size d(0.5)” value is reported as 851 μm.

Reference: patent US20110097365A1, “S-TRIAZINE DERIVATIVES CONTAINING AT LEAST TWO PARTICULAR SILANE AMINOBENZOATE OR SILANE AMINOBENZAMIDE GROUPS; PHOTOPROTECTIVE COSMETIC COMPOSITIONS CONTAINING THESE DERIVATIVES; USES OF THE SAID S-TRIAZINE DERIVATIVES” (L'OREAL, priority 2007, published 2011)
